Source: ChEMBL document CHEMBL4680077, “Differentiation of skeletal osteogenic progenitor cells to osteoblasts with 3,4-diarylbenzopyran based amide derivatives: Novel osteogenic agents” (Eur J Med Chem, 2016)
Further values from the same series stand in other lists.

Key:
Type in all cases: organism-based
Conditions in all cases: in vivo, 168 h, time 7 day
[1] = Acute toxicity in Swiss albino mouse assessed as cholesterol level at 5 mg/kg, po measured after 7 days (reference value: 265.76 +/- 24.78 mg/dL)
[2] = Acute toxicity in Swiss albino mouse assessed as absolute heart weight at 300 mg/kg, po measured after 7 days (reference value: 0.12 g)
[3] = Acute toxicity in Swiss albino mouse assessed as SGOT level at 300 mg/kg, po measured after 7 days (reference value: 31.99 +/- 3.37 U/L)
[4] = Acute toxicity in Swiss albino mouse assessed as absolute testes weight at 50 mg/kg, po measured after 7 days (reference value: 0.15+/- 0.01 g)
[5] = Acute toxicity in Swiss albino mouse assessed as absolute liver weight at 300 mg/kg, po measured after 7 days (reference value: 1.11 +/- 0.04 g)
[6] = Acute toxicity in Swiss albino mouse assessed as haemoglobin level at 300 mg/kg, po measured after 7 days (reference value: 10.86 +/- 0.87 g/dL)
[7] = Acute toxicity in Swiss albino mouse assessed as absolute spleen weight at 50 mg/kg, po measured after 7 days (reference value: 0.17 +/- 0.03 g)
[8] = Acute toxicity in Swiss albino mouse assessed as ALKP level at 5 mg/kg, po measured after 7 days (reference value: 379.25 +/- 27.08 U/L)
[9] = Acute toxicity in Swiss albino mouse assessed as absolute lung weight at 1000 mg/kg, po measured after 7 days (reference value: 0.16 +/- 0.01 g)
[10] = Acute toxicity in Swiss albino mouse assessed as RBC count at 1000 mg/kg, po measured after 7 days (Rvb =6.0 +/- 0.28 million/mm3)
[11] = Acute toxicity in Swiss albino mouse assessed as albumin level at 300 mg/kg, po measured after 7 days (reference value: 3.24 +/- 0.30 g/dL)
[12] = Acute toxicity in Swiss albino mouse assessed as reduced GSH level at 300 mg/kg, po measured after 7 days (reference value: 18.20 +/- 1.56 ug/mg of protein)
[13] = Acute toxicity in Swiss albino mouse assessed as relative spleen weight at 50 mg/kg, po measured after 7 days (reference value: 0.73 +/- 0.14 %)
[14] = Acute toxicity in Swiss albino mouse assessed as body weight at 50 mg/kg, po measured on day 7 (reference value: 22.75 +/- 0.38 g)
[15] = Acute toxicity in Swiss albino mouse assessed as relative brain weight at 300 mg/kg, po measured after 7 days (reference value: 1.63 +/- 0.13 %)
[16] = Acute toxicity in Swiss albino mouse assessed as relative lung weight at 5 mg/kg, po measured after 7 days (reference value: 0.70 +/- 0.08 %)
[17] = Acute toxicity in Swiss albino mouse assessed as relative testes weight at 1000 mg/kg, po measured after 7 days (reference value: 0.62 +/- 0.03 %)
[18] = Acute toxicity in Swiss albino mouse assessed as SGPT level at 300 mg/kg, po measured after 7 days (reference value: 14.04 +/- 1.45 U/L)
[19] = Acute toxicity in Swiss albino mouse assessed as lymphocyte count at 1000 mg/kg, po measured after 7 days (reference value: 37.97 +/- 1.80 %)
[20] = Acute toxicity in Swiss albino mouse assessed as neutrophil count at 50 mg/kg, po measured after 7 days (reference value: 41.50 +/- 4.08 %)
[21] = Acute toxicity in Swiss albino mouse assessed as relative ovary weight at 5 mg/kg, po measured after 7 days (reference value: 0.07 +/- 0.02 %)
[22] = Acute toxicity in Swiss albino mouse assessed as relative brain weight at 1000 mg/kg, po measured after 7 days (reference value: 1.63 +/- 0.13 %)
[23] = Acute toxicity in Swiss albino mouse assessed as relative testes weight at 300 mg/kg, po measured after 7 days (reference value: 0.62 +/- 0.03 %)
[24] = Acute toxicity in Swiss albino mouse assessed as RBC count at 5 mg/kg, po measured after 7 days (Rvb =6.0 +/- 0.28 million/mm3)
[25] = Acute toxicity in Swiss albino mouse assessed as creatinine level at 5 mg/kg, po measured after 7 days (reference value: 0.97 +/- 0.07 mg/dL)
[26] = Acute toxicity in Swiss albino mouse assessed as body weight at 1000 mg/kg, po measured on day 7 (reference value: 22.75 +/- 0.38 g)
[27] = Acute toxicity in Swiss albino mouse assessed as absolute ovary weight at 1000 mg/kg, po measured after 7 days (reference value: 0.04+/- 0.02 g)
[28] = Acute toxicity in Swiss albino mouse assessed as neutrophil count at 5 mg/kg, po measured after 7 days (reference value: 41.50 +/- 4.08 %)
[29] = Acute toxicity in Swiss albino mouse assessed as serum protein level at 1000 mg/kg, po measured after 7 days (reference value: 0.66 +/- 0.01 mg/ml)
[30] = Acute toxicity in Swiss albino mouse assessed as relative heart weight at 50 mg/kg, po measured after 7 days (reference value: 0.51 +/- 0.02 %)
[31] = Acute toxicity in Swiss albino mouse assessed as lymphocyte count at 50 mg/kg, po measured after 7 days (reference value: 37.97 +/- 1.80 %)
[32] = Acute toxicity in Swiss albino mouse assessed as relative spleen weight at 300 mg/kg, po measured after 7 days (reference value: 0.73 +/- 0.14 %)
[33] = Acute toxicity in Swiss albino mouse assessed as SGPT level at 1000 mg/kg, po measured after 7 days (reference value: 14.04 +/- 1.45 U/L)
[34] = Acute toxicity in Swiss albino mouse assessed as absolute testes weight at 1000 mg/kg, po measured after 7 days (reference value: 0.15+/- 0.01 g)
[35] = Acute toxicity in Swiss albino mouse assessed as absolute brain weight at 300 mg/kg, po measured after 7 days (reference value: 0.37 +/- 0.02 g)
[36] = Acute toxicity in Swiss albino mouse assessed as WBC count per thousand/mm3 at 300 mg/kg, po measured after 7 days (reference value: 6.84 +/- 0.83 /mm3)
[37] = Acute toxicity in Swiss albino mouse assessed as eosinophil count at 300 mg/kg, po measured after 7 days (reference value: 6.34 +/- 1.04 %)
[38] = Acute toxicity in Swiss albino mouse assessed as absolute uterus weight at 1000 mg/kg, po measured after 7 days (reference value: 0.27+/- 0.07 g)
[39] = Acute toxicity in Swiss albino mouse assessed as monocyte count at 5 mg/kg, po measured after 7 days (reference value: 12.58 +/- 2.86 %)
[40] = Acute toxicity in Swiss albino mouse assessed as relative heart weight at 300 mg/kg, po measured after 7 days (reference value: 0.51 +/- 0.02 %)
[41] = Acute toxicity in Swiss albino mouse assessed as cholesterol level at 50 mg/kg, po measured after 7 days (reference value: 265.76 +/- 24.78 mg/dL)
[42] = Acute toxicity in Swiss albino mouse assessed as absolute lung weight at 5 mg/kg, po measured after 7 days (reference value: 0.16 +/- 0.01 g)
[43] = Acute toxicity in Swiss albino mouse assessed as absolute ovary weight at 50 mg/kg, po measured after 7 days (reference value: 0.04+/- 0.02 g)
[44] = Acute toxicity in Swiss albino mouse assessed as triglycerides level at 5 mg/kg, po measured after 7 days (reference value: 58.51 +/- 10.82 mg/dL)
[45] = Acute toxicity in Swiss albino mouse assessed as absolute brain weight at 50 mg/kg, po measured after 7 days (reference value: 0.37 +/- 0.02 g)
[46] = Acute toxicity in Swiss albino mouse assessed as serum protein level at 300 mg/kg, po measured after 7 days (reference value: 0.66 +/- 0.01 mg/ml)
[47] = Acute toxicity in Swiss albino mouse assessed as relative kidney weight at 5 mg/kg, po measured after 7 days (reference value: 1.25 +/- 0.08 %)
[48] = Acute toxicity in Swiss albino mouse assessed as ALKP level at 300 mg/kg, po measured after 7 days (reference value: 379.25 +/- 27.08 U/L)
[49] = Acute toxicity in Swiss albino mouse assessed as reduced GSH level at 5 mg/kg, po measured after 7 days (reference value: 18.20 +/- 1.56 ug/mg of protein)
[50] = Acute toxicity in Swiss albino mouse assessed as basophil count at 5 mg/kg, po measured after 7 days (reference value: 1.50 +/- 0.29 %)
[51] = Acute toxicity in Swiss albino mouse assessed as malondialdehyde level at 300 mg/kg, po measured after 7 days (reference value: 0.14 +/- 0.01 nM/mg)
[52] = Acute toxicity in Swiss albino mouse assessed as absolute liver weight at 5 mg/kg, po measured after 7 days (reference value: 1.11 +/- 0.04 g)
[53] = Acute toxicity in Swiss albino mouse assessed as relative testes weight at 50 mg/kg, po measured after 7 days (reference value: 0.62 +/- 0.03 %)
[54] = Acute toxicity in Swiss albino mouse assessed as cholesterol level at 1000 mg/kg, po measured after 7 days (reference value: 265.76 +/- 24.78 mg/dL)
[55] = Acute toxicity in Swiss albino mouse assessed as relative uterus weight at 1000 mg/kg, po measured after 7 days (reference value: 1.63 +/- 0.71 %)
[56] = Acute toxicity in Swiss albino mouse assessed as absolute testes weight at 5 mg/kg, po measured after 7 days (reference value: 0.15+/- 0.01 g)

**Q.** With `CCCCN(C)C(=O)CCCCOc1ccc([C@H]2c3ccc(OC)cc3OC(C)(C)[C@@H]2c2ccccc2)cc1` as the compound, how does the Activity [1] read?
**A.** 288.67 mg/dL

**Q.** What about the Activity [2] of the same compound?
**A.** 0.12 g

**Q.** And the Activity [3]?
**A.** 42.66 U/L

**Q.** What about the Activity [4] of the same compound?
**A.** 0.17 g

**Q.** And the Activity [5]?
**A.** 1.13 g

**Q.** What about the Activity [6] of the same compound?
**A.** 12.92 g/dL

**Q.** What about the Activity [7] of the same compound?
**A.** 0.13 g

**Q.** And the Activity [8]?
**A.** 278.7 U/L

**Q.** What about the Activity [9] of the same compound?
**A.** 0.15 g

**Q.** What about the Activity [10] of the same compound?
**A.** 6.27 million/mm3

**Q.** What about the Activity [11] of the same compound?
**A.** 3.73 g/dL

**Q.** What about the Activity [12] of the same compound?
**A.** 14.31 µg/mg

**Q.** And the Activity [13]?
**A.** 0.55%

**Q.** What about the Activity [14] of the same compound?
**A.** 23.52 g

**Q.** What about the Activity [15] of the same compound?
**A.** 1.54%

**Q.** And the Activity [16]?
**A.** 0.61%

**Q.** And the Activity [17]?
**A.** 0.88%

**Q.** What about the Activity [18] of the same compound?
**A.** 17.6 U/L

**Q.** What about the Activity [19] of the same compound?
**A.** 34.49%

**Q.** And the Activity [20]?
**A.** 44.27%

**Q.** And the Activity [21]?
**A.** 0.2%

**Q.** And the Activity [22]?
**A.** 1.63%

**Q.** And the Activity [23]?
**A.** 0.54%

**Q.** And the Activity [24]?
**A.** 7.14 million/mm3

**Q.** What about the Activity [25] of the same compound?
**A.** 0.78 mg/dL

**Q.** What about the Activity [26] of the same compound?
**A.** 20.3 g

**Q.** And the Activity [27]?
**A.** 0.05 g

**Q.** What about the Activity [28] of the same compound?
**A.** 42.94%

**Q.** What about the Activity [29] of the same compound?
**A.** 0.75 mg/mL

**Q.** What about the Activity [30] of the same compound?
**A.** 0.5%

**Q.** What about the Activity [31] of the same compound?
**A.** 35.79%

**Q.** What about the Activity [32] of the same compound?
**A.** 0.57%

**Q.** And the Activity [33]?
**A.** 17.21 U/L

**Q.** What about the Activity [34] of the same compound?
**A.** 0.18 g

**Q.** What about the Activity [35] of the same compound?
**A.** 0.35 g

**Q.** And the Activity [36]?
**A.** 6.59 /mm3

**Q.** And the Activity [37]?
**A.** 5.27%

**Q.** What about the Activity [38] of the same compound?
**A.** 0.38 g

**Q.** What about the Activity [39] of the same compound?
**A.** 8.94%

**Q.** And the Activity [40]?
**A.** 0.49%

**Q.** And the Activity [41]?
**A.** 219.09 mg/dL

**Q.** And the Activity [42]?
**A.** 0.15 g

**Q.** What about the Activity [43] of the same compound?
**A.** 0.07 g

**Q.** And the Activity [44]?
**A.** 67.53 mg/dL

**Q.** What about the Activity [45] of the same compound?
**A.** 0.36 g

**Q.** And the Activity [46]?
**A.** 0.67 mg/mL

**Q.** What about the Activity [47] of the same compound?
**A.** 1.13%

**Q.** What about the Activity [48] of the same compound?
**A.** 329.28 U/L

**Q.** What about the Activity [49] of the same compound?
**A.** 19.35 µg/mg

**Q.** What about the Activity [50] of the same compound?
**A.** 0.67%

**Q.** And the Activity [51]?
**A.** 0.13 nM/mg

**Q.** What about the Activity [52] of the same compound?
**A.** 1.18 g

**Q.** What about the Activity [53] of the same compound?
**A.** 0.63%

**Q.** What about the Activity [54] of the same compound?
**A.** 267.94 mg/dL

**Q.** What about the Activity [55] of the same compound?
**A.** 1.82%

**Q.** What about the Activity [56] of the same compound?
**A.** 0.15 g
